For test [1], the target named is P2RY8-W181M-LgBiT (human) (UniProt Q86VZ1). Description: split reporter.
Another test concerns the target P2RY8 V29W-LgBiT (human) (UniProt Q86VZ1). The test is described as follows: split reporter.
Test [2] has as its target P2RY8-LgBiT (wild type) (human) (UniProt Q86VZ1). Description: split reporter.
The target of test [3] is P2RY8-K180I-LgBiT (human) (UniProt Q86VZ1). Description: split reporter.
Test [4] has as its target Gβ3 with Gγ9-GFP2 (pcDNA3.1-Beta3 and pcDNA3.1-GGamma9-GFP2) (UniProt P16520). The test is described as follows: FRET or BRET.

The chains behind the UniProt entries cited, without tags or fusion partners. Where a name states a change or a piece, a line headed by the entry shows the natural chain unless it says otherwise.
UniProt P16520: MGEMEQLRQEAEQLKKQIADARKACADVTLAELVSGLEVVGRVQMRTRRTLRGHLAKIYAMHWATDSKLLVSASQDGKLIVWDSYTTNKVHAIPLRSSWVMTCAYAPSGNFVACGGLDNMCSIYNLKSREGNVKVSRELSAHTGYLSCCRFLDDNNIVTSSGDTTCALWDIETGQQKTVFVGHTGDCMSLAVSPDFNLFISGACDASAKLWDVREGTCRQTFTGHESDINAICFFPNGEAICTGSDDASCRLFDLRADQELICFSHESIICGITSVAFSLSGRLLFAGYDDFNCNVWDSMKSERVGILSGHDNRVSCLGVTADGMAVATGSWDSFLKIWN
UniProt Q14344: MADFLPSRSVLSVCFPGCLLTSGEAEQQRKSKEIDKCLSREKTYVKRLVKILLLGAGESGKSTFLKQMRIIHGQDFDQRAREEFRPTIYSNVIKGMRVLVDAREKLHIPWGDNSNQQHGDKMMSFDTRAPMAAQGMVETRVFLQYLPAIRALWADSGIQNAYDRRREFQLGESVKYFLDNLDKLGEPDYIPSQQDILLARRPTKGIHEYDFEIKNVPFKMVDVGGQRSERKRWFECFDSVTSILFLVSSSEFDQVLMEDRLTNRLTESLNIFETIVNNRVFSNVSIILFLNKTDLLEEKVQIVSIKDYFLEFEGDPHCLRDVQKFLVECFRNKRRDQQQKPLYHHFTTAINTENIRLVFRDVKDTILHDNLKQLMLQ

No constants are given. Whether binding was seen depends on the method and setting. Binding seen in cells or lysates may run through a third protein. Some binding calls cover weakened binding; strength is not graded here.

As to “β-Arr2-SmBiT (from UniProt P32121 1-409)”, the binding entry (in test [1]; with P2RY8 V29W-LgBiT (human); in test [2]; in test [3]) was “binds” each time.
As for “Gα13-RLuc8 (pcDNA5/FRT/TO-GAlpha13-RLuc8) (from UniProt Q14344 1-377)”, in test [4], the binding entry is “binds”.

Source of the values: article PMC12648108.
